Results reported in PMC9857342.
Changes are numbered by the printed parent chain. Results are given in words; binding and its absence hold for the method and conditions named. Binding seen in cells or lysates may run through a third protein. Some binding calls cover weakened binding; strength is not graded here. For part of these data: Tags and fused reporters may be left off the sequences shown. Each block holds one molecule with its values, some of them ahead of it.

Amino acid sequences for entries named in this document (tags omitted). Residues count along the entry.
UniProt P02545, residues 1-646: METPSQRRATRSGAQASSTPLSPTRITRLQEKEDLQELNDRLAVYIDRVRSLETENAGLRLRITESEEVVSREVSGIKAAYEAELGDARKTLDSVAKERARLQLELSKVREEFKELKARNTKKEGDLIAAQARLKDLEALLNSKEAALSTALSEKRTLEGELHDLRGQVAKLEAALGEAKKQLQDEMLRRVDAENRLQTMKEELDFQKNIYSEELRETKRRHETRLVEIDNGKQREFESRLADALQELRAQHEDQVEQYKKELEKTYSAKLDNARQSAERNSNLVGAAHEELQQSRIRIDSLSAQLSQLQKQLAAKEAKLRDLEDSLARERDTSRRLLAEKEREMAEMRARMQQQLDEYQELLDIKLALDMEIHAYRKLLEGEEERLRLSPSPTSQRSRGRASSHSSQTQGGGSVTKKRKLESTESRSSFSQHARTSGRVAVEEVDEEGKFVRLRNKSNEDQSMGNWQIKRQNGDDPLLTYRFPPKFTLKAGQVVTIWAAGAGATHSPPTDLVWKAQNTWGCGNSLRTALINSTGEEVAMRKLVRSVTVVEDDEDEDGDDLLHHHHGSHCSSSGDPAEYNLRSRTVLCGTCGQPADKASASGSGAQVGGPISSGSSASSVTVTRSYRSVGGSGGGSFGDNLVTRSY

Tests used:
[1] = target: T1, LAP2α WT-DDK (human LAP2α, amino acids 1-694, myc-DDK tag) (human) (UniProt P42166); test: proximity ligation; in situ PLA between LAP2α-DDK and lamin A/C; data not shown; cells not given
T1 sequence: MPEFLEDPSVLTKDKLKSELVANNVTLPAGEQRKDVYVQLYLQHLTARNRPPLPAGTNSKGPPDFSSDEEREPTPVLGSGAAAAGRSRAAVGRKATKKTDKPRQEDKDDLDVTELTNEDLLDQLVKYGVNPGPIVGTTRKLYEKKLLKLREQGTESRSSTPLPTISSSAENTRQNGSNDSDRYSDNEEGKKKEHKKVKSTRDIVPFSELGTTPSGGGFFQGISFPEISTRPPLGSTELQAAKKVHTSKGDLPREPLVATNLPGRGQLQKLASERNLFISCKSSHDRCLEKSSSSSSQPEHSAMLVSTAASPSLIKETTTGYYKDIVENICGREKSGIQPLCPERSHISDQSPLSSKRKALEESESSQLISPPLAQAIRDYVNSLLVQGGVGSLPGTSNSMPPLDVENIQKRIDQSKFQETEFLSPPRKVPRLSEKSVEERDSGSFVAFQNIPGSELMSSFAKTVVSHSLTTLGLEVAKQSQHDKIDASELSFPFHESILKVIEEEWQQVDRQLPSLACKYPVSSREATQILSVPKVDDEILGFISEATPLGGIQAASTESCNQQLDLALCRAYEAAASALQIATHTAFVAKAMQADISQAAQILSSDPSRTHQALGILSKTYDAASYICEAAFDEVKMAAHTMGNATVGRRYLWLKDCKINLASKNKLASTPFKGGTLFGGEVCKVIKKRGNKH

[2] = target: T2, LAP2α p.(Ala240Thr)-DDK (human) (UniProt P42166); test: as above
T2 sequence: T1 sequence with A240T

[3] = target: T3, LAP2α p.(Arg690Cys)-DDK (human) (UniProt P42166); test: as above
T3 sequence: T1 sequence with R690C

[4] = target: T1, LAP2α WT-DDK (human LAP2α, amino acids 1-694, myc-DDK tag) (human); test: proximity ligation; in situ PLA in HEK293 cells transfected with LAP2α-DDK; antibodies against DDK and endogenous HMGN5; mean nuclear PLA signal intensity on confocal images
[5] = target: T2, LAP2α p.(Ala240Thr)-DDK (human); test: as above
[6] = target: T3, LAP2α p.(Arg690Cys)-DDK (human); test: as above
[7] = target: T1, LAP2α WT-DDK (human LAP2α, amino acids 1-694, myc-DDK tag) (human); test: proximity ligation; in situ PLA in HEK293 cells expressing LAP2α-DDK; antibodies against DDK and endogenous BAF; mean PLA signal intensity per nucleus
[8] = target: T4, LAP2α p.(Leu124Phe)-DDK (human) (UniProt P42166); test: as above
T4 sequence: T1 sequence with L124F

[9] = target: T1, LAP2α WT-DDK (human LAP2α, amino acids 1-694, myc-DDK tag) (human); test: proximity ligation; in situ PLA in H9C2 cells expressing LAP2α-DDK; antibodies against DDK and endogenous BAF; mean PLA signal intensity per nucleus
[10] = target: T4, LAP2α p.(Leu124Phe)-DDK (human); test: as above
[11] = target: T1, LAP2α WT-DDK (human LAP2α, amino acids 1-694, myc-DDK tag) (human); test: proximity ligation; in situ PLA in HEK293 cells co-expressing LAP2α-DDK or LAP2β-DDK and HA-BAF; antibodies against DDK and HA; mean PLA signal intensity per nucleus
[12] = target: T4, LAP2α p.(Leu124Phe)-DDK (human); test: as above
[13] = target: T5, LAP2β WT-DDK (human LAP2β, amino acids 1-454, myc-DDK tag) (human) (UniProt P42167); test: as above
T5 sequence: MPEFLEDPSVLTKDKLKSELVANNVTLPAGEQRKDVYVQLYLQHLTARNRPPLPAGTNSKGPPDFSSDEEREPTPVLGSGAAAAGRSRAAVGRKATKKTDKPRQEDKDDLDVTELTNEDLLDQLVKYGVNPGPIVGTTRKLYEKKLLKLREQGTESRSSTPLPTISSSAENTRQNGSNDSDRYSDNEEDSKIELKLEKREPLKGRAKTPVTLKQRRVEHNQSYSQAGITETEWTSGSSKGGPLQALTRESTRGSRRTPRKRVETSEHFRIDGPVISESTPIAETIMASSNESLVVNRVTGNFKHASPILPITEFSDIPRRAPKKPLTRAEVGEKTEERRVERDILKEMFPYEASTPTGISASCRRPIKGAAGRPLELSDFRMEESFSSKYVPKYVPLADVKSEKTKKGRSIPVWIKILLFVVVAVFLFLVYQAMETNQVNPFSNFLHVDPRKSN

[14] = target: T6, LAP2β p.(Leu124Phe)-DDK (human) (UniProt P42167); test: as above
T6 sequence: T5 sequence with L124F

[15] = target: T5, LAP2β WT-DDK (human LAP2β, amino acids 1-454, myc-DDK tag) (human); test: co-IP; HEK293 cells co-expressing LAP2β-DDK and HA-BAF; lysis in 25 mM Tris-HCl pH 7.4, 137 mM NaCl, 2.5 mM KCl, 1% Triton, sonicated; first round with mouse anti-HA and protein G plus agarose, supernatants then on anti-FLAG M2 affinity gel; 4 °C; immunoblot

- binding [1]: binds
- binding [2]: binds
- binding [3]: binds
Molecule: lamin A/C (from UniProt P02545 1-646)

- binding [4]: binds
- binding [5]: binds
- binding [6]: binds
B1: endogenous HMGN5 of HEK293 cells (protein, UniProt P82970 1-282)
chain: MPKRKAAGQGDMRQEPKRRSARLSAMLVPVTPEVKPKRTSSSRKMKTKSDMMEENIDTSAQAVAETKQEAVVEEDYNENAKNGEAKITEAPASEKEIVEVKEENIEDATEKGGEKKEAVAAEVKNEEEDQKEDEEDQNEEKGEAGKEDKDEKGEEDGKEDKNGNEKGEDAKEKEDGKKGEDGKGNGEDGKEKGEDEKEEEDRKETGDGKENEDGKEKGDKKEGKDVKVKEDEKEREDGKEDEGGNEEEAGKEKEDLKEEEEGKEEDEIKEDDGKKEEPQSIV

- binding [7]: binds
- binding [8]: binds
B2: endogenous BAF of HEK293 cells (protein, UniProt O75531 1-89)
chain: MTTSQKHRDFVAEPMGEKPVGSLAGIGEVLGKKLEERGFDKAYVVLGQFLVLKKDEDLFREWLKDTCGANAKQSRDCFGCLREWCDAFL

Second part, the molecule before the results:

B3: endogenous BAF of H9C2 cells (protein, UniProt Q9R1T1 1-89)
chain: B2 chain with E28D, V29A, K33R
- binding [9]: binds
- binding [10]: binds

B4: HA-BAF (barrier autointegration factor, HA-tagged) (protein, UniProt O75531 1-89)
chain: B2 chain
- binding [11]: binds
- binding [12]: binds
- binding [13]: binds
- binding [14]: binds
- binding [15]: binds
